Assay results from paper doi:10.1101/2023.12.08.570815.
Where two headings read alike, the source gives them in different places. Results are given in words; binding and its absence hold for the method and conditions named. For some of these results: Binding seen in cells or lysates may run through a third protein. Some binding calls cover weakened binding; strength is not graded here. For some of these results: Where a sequence is shown, tags or fusion partners need not be part of it.

Assays:
[1] = biological target: T1, C-terminal domain of ULK1 (amino acids 827-1050), yeast two-hybrid fusion (UniProt O75385); assay: two-hybrid
T1 sequence: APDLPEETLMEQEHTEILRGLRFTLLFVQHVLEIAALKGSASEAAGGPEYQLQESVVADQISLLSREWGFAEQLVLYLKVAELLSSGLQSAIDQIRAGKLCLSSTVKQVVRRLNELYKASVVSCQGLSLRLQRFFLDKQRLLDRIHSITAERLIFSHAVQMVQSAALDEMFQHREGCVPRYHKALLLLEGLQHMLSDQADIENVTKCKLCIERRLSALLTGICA

[2] = biological target: T2, SHA-tagged BAG2 S31A (human (HEK293T cDNA)) (UniProt O95816); assay: co-IP
T2 sequence: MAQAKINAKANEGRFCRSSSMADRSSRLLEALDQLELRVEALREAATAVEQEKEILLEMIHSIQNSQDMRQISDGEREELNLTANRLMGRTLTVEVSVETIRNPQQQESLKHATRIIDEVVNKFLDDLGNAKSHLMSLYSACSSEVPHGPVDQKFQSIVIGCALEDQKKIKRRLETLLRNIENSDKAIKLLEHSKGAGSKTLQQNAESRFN

[3] = biological target: SHA-tagged BAG2 wild type (human (HEK293T cDNA)) (UniProt O95816); assay: co-IP
[4] = biological target: T3, SHA-tagged BAG2 S31E (human (HEK293T cDNA)) (UniProt O95816); assay: co-IP
T3 sequence: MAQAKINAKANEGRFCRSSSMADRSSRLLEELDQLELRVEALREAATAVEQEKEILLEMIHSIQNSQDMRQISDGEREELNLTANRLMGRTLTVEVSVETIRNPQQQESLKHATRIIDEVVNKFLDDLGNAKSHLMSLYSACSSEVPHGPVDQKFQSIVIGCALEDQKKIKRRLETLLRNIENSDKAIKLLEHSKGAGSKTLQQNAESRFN

[5] = biological target: T2, SHA-tagged BAG2 S31A (human (HEK293T cDNA)); assay: co-IP; remark: listed apart in the source
[6] = biological target: SHA-tagged BAG2 wild type (human (HEK293T cDNA)) (UniProt O95816); assay: co-IP; remark: listed apart in the source
[7] = biological target: T3, SHA-tagged BAG2 S31E (human (HEK293T cDNA)); assay: co-IP; remark: listed apart in the source

Molecule: BAG2, yeast two-hybrid fusion (from UniProt O95816 1-211)
- binding [1]: binds

Molecule: SQSTM1/p62, endogenous (from UniProt Q13501 1-440)
- binding [2]: binds
- binding [3]: binds
- binding [4]: binds

B1: chloride ion channel CLCC1, endogenous (protein, UniProt Q96S66 19-551)
chain: HDDDWIDPTDMLNYDAASGTMRKSQAKYGISGEKDVSPDLSCADEISECYHKLDSLTYKIDECEKKKREDYESQSNPVFRRYLNKILIEAGKLGLPDENKGDMHYDAEIILKRETLLEIQKFLNGEDWKPGALDDALSDILINFKFHDFETWKWRFEDSFGVDPYNVLMVLLCLLCIVVLVATELWTYVRWYTQLRRVLIISFLFSLGWNWMYLYKLAFAQHQAEVAKMEPLNNVCAKKMDWTGSIWEWFRSSWTYKDDPCQKYYELLLVNPIWLVPPTKALAVTFTTFVTEPLKHIGKGTGEFIKALMKEIPALLHLPVLIIMALAILSFCYGAGKSVHVLRHIGGPESEPPQALRPRDRRRQEEIDYRPDGGAGDADFHYRGQMGPTEQGPYAKTYEGRREILRERDVDLRFQTGNKSPEVLRAFDVPDAEAREHPTVVPSHKSPVLDTKPKETGGILGEGTPKESSTESSQSAKPVSGQDTSGNTEGSPAAEKAQLKSEAAGSPDQGSTYSPARGVAGPRGQDPVSSPCG
- binding [5]: binds
- binding [6]: binds
- binding [7]: binds
